# Source: the supplement of paper PMC8728848
# The list shows a part of the results.
# B1: Vd7LysM (Verticillium dahliae) (protein)
# chain: RRGPEPKYPPAAGTSSYCSYWVDYEGDKSCSRVLEDNVVVLKDFARWNPTVGADCSGIKAGNSYCVEAFGEPEPIEVTTTTRAATTTTQPTATTTTFANGIATPQPTQSGMVTNCNKFHWIAEGVSCSQVISFQKITLADFVKWNPSVKSDCSGMWAGVNVCVGVVGSSTDTAKPTTTAPSNGVVTPQPTQPSMVTNCNKFHWIAKGVTCQQVISYQKISLADFVKWNPSVLSDCSGMWAEVQVCVGVIGSTPTTLATTTTTAGNGVSTPLPTQPGMVTNCAKFHWVAKGVTCNQIYSFQKITLEQFVSYNPTVKSDCSGMQAEVQVCVGLIAGTTPTTTRPPTTTAPGNGVSTPQPTQPGMVTNCAKFHWVAKGVTCNQIYSFQKITLEQFVSFNPTVKSDCTGMQAEVNVCVGLIGGNPTPTQTGNGIATPTPIQPGMVSNCKKFHWIAQGVTCQQVISFQKITLADFVKWNTGVGSDCRTMWAETNVCVGV
# Key:
# Assay in all cases: glycan array binding signal (z-score within array); higher = stronger binding
# Settings in all cases: glycan notation: IUPAC condensed, linker removed
# [1] = biological target: Neu5Ac(a2-3)Gal(b1-4)GlcNAc(b1-2)[Neu5Ac(a2-3)Gal(b1-4)GlcNAc(b1-4)]Man(a1-3)[GlcNAc(b1-4)][Neu5Ac(a2-3)Gal(b1-4)GlcNAc(b1-2)[Neu5Ac(a2-3)Gal(b1-4)GlcNAc(b1-6)]Man(a1-6)]Man(b1-4)GlcNAc(b1-4)GlcNAc
# In short: (§1)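 The binding signal is a Z-score computed within each array and averaged over linkers. Arrays of the same protein sequence at different concentrations or buffers were also averaged together. Data originate from 3228 arrays in the Consortium for Functional Glycomics database, kept only where the protein sequence was available.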
# [2] = biological target: Neu5Ac(a2-3)Gal(b1-4)GlcNAc(b1-2)[Neu5Ac(a2-3)Gal(b1-4)GlcNAc(b1-4)]Man(a1-3)[GlcNAc(b1-4)][Neu5Ac(a2-3)Gal(b1-4)GlcNAc(b1-4)Man(a1-6)]Man(b1-4)GlcNAc(b1-4)GlcNAc
# In short: as §1
# [3] = biological target: Neu5Ac(a2-3)Gal(b1-4)GlcNAc(b1-2)[Neu5Ac(a2-3)Gal(b1-4)GlcNAc(b1-6)]Man(a1-6)[Neu5Ac(a2-3)Gal(b1-4)GlcNAc(b1-2)Man(a1-3)][GlcNAc(b1-4)]Man(b1-4)GlcNAc(b1-4)GlcNAc
# In short: as §1
# [4] = biological target: Neu5Ac(a2-3)Gal(b1-4)GlcNAc(b1-3)Gal
# In short: as §1
# [5] = biological target: Neu5Ac(a2-3)Gal(b1-4)GlcNAc(b1-3)Gal(b1-3)GlcNAc
# In short: as §1
# [6] = biological target: Neu5Ac(a2-3)Gal(b1-4)GlcNAc(b1-3)Gal(b1-4)GlcNAc
# In short: as §1
# [7] = biological target: Neu5Ac(a2-3)Gal(b1-4)GlcNAc(b1-3)Gal(b1-4)GlcNAc(b1-2)Man(a1-3)[Neu5Ac(a2-3)Gal(b1-4)GlcNAc(b1-3)Gal(b1-4)GlcNAc(b1-2)Man(a1-6)]Man(b1-4)GlcNAc(b1-4)GlcNAc
# In short: as §1
# [8] = biological target: Neu5Ac(a2-3)Gal(b1-4)GlcNAc(b1-3)Gal(b1-4)GlcNAc(b1-3)Gal(b1-4)GlcNAc
# In short: as §1
# [9] = biological target: Neu5Ac(a2-3)Gal(b1-4)GlcNAc(b1-3)Gal(b1-4)GlcNAc(b1-3)Gal(b1-4)GlcNAc(b1-2)Man(a1-3)[Neu5Ac(a2-3)Gal(b1-4)GlcNAc(b1-3)Gal(b1-4)GlcNAc(b1-3)Gal(b1-4)GlcNAc(b1-2)Man(a1-6)]GalNAc
# In short: as §1
# [10] = biological target: Neu5Ac(a2-3)Gal(b1-4)GlcNAc(b1-3)Gal(b1-4)GlcNAc(b1-3)GalNAc
# In short: as §1
# [11] = biological target: Neu5Ac(a2-3)Gal(b1-4)GlcNAc(b1-3)Gal(b1-4)GlcNAc(b1-3)[Neu5Ac(a2-3)Gal(b1-4)GlcNAc(b1-3)Gal(b1-4)GlcNAc(b1-6)]GalNAc
# In short: as §1
# [12] = biological target: Neu5Ac(a2-3)Gal(b1-4)GlcNAc(b1-3)Gal(b1-4)GlcNAc(b1-6)[Gal(b1-3)]GalNAc
# In short: as §1
# [13] = biological target: Neu5Ac(a2-3)Gal(b1-4)GlcNAc(b1-3)Gal(b1-4)[Fuc(a1-3)]GlcNAc
# In short: as §1
# [14] = biological target: Neu5Ac(a2-3)Gal(b1-4)GlcNAc(b1-3)GalNAc
# In short: as §1
# [15] = biological target: Neu5Ac(a2-3)Gal(b1-4)GlcNAc(b1-3)[Neu5Ac(a2-3)Gal(b1-4)GlcNAc(b1-6)]GalNAc
# In short: as §1
# [16] = biological target: Neu5Ac(a2-3)Gal(b1-4)GlcNAc(b1-6)GalNAc
# In short: as §1
# [17] = biological target: Neu5Ac(a2-3)Gal(b1-4)GlcNAc(b1-6)[Gal(b1-3)]GalNAc
# In short: as §1
# [18] = biological target: Neu5Ac(a2-3)Gal(b1-4)GlcNAc(b1-6)[Neu5Ac(a2-3)Gal(b1-3)]GalNAc
# In short: as §1
# [19] = biological target: Neu5Ac(a2-3)Gal(b1-4)GlcNAc6S
# In short: as §1
# [20] = biological target: Neu5Ac(a2-3)Gal(b1-4)[Fuc(a1-3)]GlcNAc
# In short: as §1
# [21] = biological target: Neu5Ac(a2-3)Gal(b1-4)[Fuc(a1-3)]GlcNAc(b1-2)Man
# In short: as §1
# [22] = biological target: Neu5Ac(a2-3)Gal(b1-4)[Fuc(a1-3)]GlcNAc(b1-3)Gal
# In short: as §1
# [23] = biological target: Neu5Ac(a2-3)Gal(b1-4)[Fuc(a1-3)]GlcNAc(b1-3)Gal(b1-4)GlcNAc
# In short: as §1
# [24] = biological target: Neu5Ac(a2-3)Gal(b1-4)[Fuc(a1-3)]GlcNAc(b1-3)Gal(b1-4)[Fuc(a1-3)]GlcNAc(b1-3)Gal(b1-4)[Fuc(a1-3)]GlcNAc
# In short: as §1
# [25] = biological target: Neu5Ac(a2-3)Gal(b1-4)[Fuc(a1-3)]GlcNAc(b1-3)GalNAc
# In short: as §1
# [26] = biological target: Neu5Ac(a2-3)Gal(b1-4)[Fuc(a1-3)]GlcNAc(b1-6)[Gal(b1-3)]GalNAc
# In short: as §1
# [27] = biological target: Neu5Ac(a2-3)Gal(b1-4)[Fuc(a1-3)]GlcNAc(b1-6)[Neu5Ac(a2-3)Gal(b1-3)]GalNAc
# In short: as §1
# [28] = biological target: Neu5Ac(a2-3)Gal(b1-4)[Fuc(a1-3)]GlcNAc6S
# In short: as §1
# [29] = biological target: Neu5Ac(a2-3)Gal6S(b1-4)GlcNAc
# In short: as §1
# [30] = biological target: Neu5Ac(a2-3)Gal6S(b1-4)[Fuc(a1-3)]GlcNAc
# In short: as §1
# [31] = biological target: Neu5Ac(a2-3)GalNAc
# In short: as §1
# [32] = biological target: Neu5Ac(a2-3)GalNAc(b1-4)GlcNAc
# In short: as §1
# [33] = biological target: Neu5Ac(a2-3)[GalNAc(b1-4)]Gal(b1-4)Glc
# In short: as §1
# [34] = biological target: Neu5Ac(a2-3)[GalNAc(b1-4)]Gal(b1-4)GlcNAc
# In short: as §1
# [35] = biological target: Neu5Ac(a2-3)[GalNAc(b1-4)]Gal(b1-4)GlcNAc(b1-3)GalNAc
# In short: as §1
# [36] = biological target: Neu5Ac(a2-3)[Neu5Ac(a2-6)]GalNAc
# In short: as §1
# [37] = biological target: Neu5Ac(a2-6)Gal
# In short: as §1
# [38] = biological target: Neu5Ac(a2-6)Gal(b1-3)GlcNAc(b1-3)[Gal(b1-4)GlcNAc(b1-6)]Gal(b1-4)Glc
# In short: as §1
# [39] = biological target: Neu5Ac(a2-6)Gal(b1-4)Glc
# In short: as §1
# [40] = biological target: Neu5Ac(a2-6)Gal(b1-4)GlcNAc
# In short: as §1
# [41] = biological target: Neu5Ac(a2-6)Gal(b1-4)GlcNAc(b1-2)Man
# In short: as §1
# [42] = biological target: Neu5Ac(a2-6)Gal(b1-4)GlcNAc(b1-2)Man(a1-3)Man(b1-4)GlcNAc(b1-4)GlcNAc
# In short: as §1
# [43] = biological target: Neu5Ac(a2-6)Gal(b1-4)GlcNAc(b1-2)Man(a1-3)[Gal(b1-4)GlcNAc(b1-2)Man(a1-6)]Man(b1-4)GlcNAc(b1-4)GlcNAc
# In short: as §1
# [44] = biological target: Neu5Ac(a2-6)Gal(b1-4)GlcNAc(b1-2)Man(a1-3)[GlcNAc(b1-2)Man(a1-6)]Man(b1-4)GlcNAc(b1-4)GlcNAc
# In short: as §1
# [45] = biological target: Neu5Ac(a2-6)Gal(b1-4)GlcNAc(b1-2)Man(a1-3)[GlcNAc(b1-4)][Neu5Ac(a2-6)Gal(b1-4)GlcNAc(b1-2)Man(a1-6)]Man(b1-4)GlcNAc(b1-4)GlcNAc
# In short: as §1
binder,measurement,setting,value
B1,glycan array binding signal (z-score),[1],-0.515
same,glycan array binding signal (z-score),[2],-1.67
same,glycan array binding signal (z-score),[3],-1.32
same,glycan array binding signal (z-score),[4],-0.515
same,glycan array binding signal (z-score),[5],1.03
same,glycan array binding signal (z-score),[6],-1.16
same,glycan array binding signal (z-score),[7],2.5
same,glycan array binding signal (z-score),[8],0.205
same,glycan array binding signal (z-score),[9],-1.55
same,glycan array binding signal (z-score),[10],-0.032
same,glycan array binding signal (z-score),[11],-0.119
same,glycan array binding signal (z-score),[12],1.94
same,glycan array binding signal (z-score),[13],0.578
same,glycan array binding signal (z-score),[14],-0.173
same,glycan array binding signal (z-score),[15],-0.602
same,glycan array binding signal (z-score),[16],-0.583
same,glycan array binding signal (z-score),[17],-1.19
same,glycan array binding signal (z-score),[18],0.699
same,glycan array binding signal (z-score),[19],-0.253
same,glycan array binding signal (z-score),[20],0.307
same,glycan array binding signal (z-score),[21],-0.307
same,glycan array binding signal (z-score),[22],-1.44
same,glycan array binding signal (z-score),[23],0.427
same,glycan array binding signal (z-score),[24],-0.577
same,glycan array binding signal (z-score),[25],1.12
same,glycan array binding signal (z-score),[26],0.347
same,glycan array binding signal (z-score),[27],1.41
same,glycan array binding signal (z-score),[28],-0.942
same,glycan array binding signal (z-score),[29],-0.911
same,glycan array binding signal (z-score),[30],-0.384
same,glycan array binding signal (z-score),[31],-0.824
same,glycan array binding signal (z-score),[32],-0.631
same,glycan array binding signal (z-score),[33],-0.671
same,glycan array binding signal (z-score),[34],-0.069
same,glycan array binding signal (z-score),[35],-0.641
same,glycan array binding signal (z-score),[36],-1.03
same,glycan array binding signal (z-score),[37],0.198
same,glycan array binding signal (z-score),[38],-0.706
same,glycan array binding signal (z-score),[39],-0.668
same,glycan array binding signal (z-score),[40],-0.527
same,glycan array binding signal (z-score),[41],-0.848
same,glycan array binding signal (z-score),[42],0.363
same,glycan array binding signal (z-score),[43],0.214
same,glycan array binding signal (z-score),[44],-0.209
same,glycan array binding signal (z-score),[45],-0.115

# Reprinted from above for reference:
binder,measurement,setting,value
B1,glycan array binding signal (z-score),[4],-0.515
same,glycan array binding signal (z-score),[5],1.03
